Reference: publication PMC3871807
Results are given in words; binding and its absence hold for the method and conditions named. In cells and extracts the contact can be indirect. Some entries that bind do so weakly or less than the wild type. For part of these data: Tags and fused reporters may be left off the sequences shown.

Amino acid sequences for entries named in this document (tags omitted). Residues count along the entry.
UniProt Q10MW6, residues 26-582: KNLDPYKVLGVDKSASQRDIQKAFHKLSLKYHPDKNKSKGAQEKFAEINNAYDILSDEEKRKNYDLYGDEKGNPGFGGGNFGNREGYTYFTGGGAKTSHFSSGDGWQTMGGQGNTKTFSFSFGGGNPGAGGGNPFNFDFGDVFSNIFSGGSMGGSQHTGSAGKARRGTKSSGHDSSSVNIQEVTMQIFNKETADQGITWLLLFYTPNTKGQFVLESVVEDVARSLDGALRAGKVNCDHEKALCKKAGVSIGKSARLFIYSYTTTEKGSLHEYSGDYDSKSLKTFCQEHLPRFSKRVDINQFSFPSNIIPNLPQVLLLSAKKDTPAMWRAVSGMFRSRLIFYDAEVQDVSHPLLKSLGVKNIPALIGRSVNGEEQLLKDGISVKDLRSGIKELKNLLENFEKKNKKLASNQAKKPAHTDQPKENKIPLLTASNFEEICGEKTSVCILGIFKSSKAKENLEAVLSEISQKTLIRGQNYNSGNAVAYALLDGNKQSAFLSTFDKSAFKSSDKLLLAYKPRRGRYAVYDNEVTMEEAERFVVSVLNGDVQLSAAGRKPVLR
UniProt Q7XVN7: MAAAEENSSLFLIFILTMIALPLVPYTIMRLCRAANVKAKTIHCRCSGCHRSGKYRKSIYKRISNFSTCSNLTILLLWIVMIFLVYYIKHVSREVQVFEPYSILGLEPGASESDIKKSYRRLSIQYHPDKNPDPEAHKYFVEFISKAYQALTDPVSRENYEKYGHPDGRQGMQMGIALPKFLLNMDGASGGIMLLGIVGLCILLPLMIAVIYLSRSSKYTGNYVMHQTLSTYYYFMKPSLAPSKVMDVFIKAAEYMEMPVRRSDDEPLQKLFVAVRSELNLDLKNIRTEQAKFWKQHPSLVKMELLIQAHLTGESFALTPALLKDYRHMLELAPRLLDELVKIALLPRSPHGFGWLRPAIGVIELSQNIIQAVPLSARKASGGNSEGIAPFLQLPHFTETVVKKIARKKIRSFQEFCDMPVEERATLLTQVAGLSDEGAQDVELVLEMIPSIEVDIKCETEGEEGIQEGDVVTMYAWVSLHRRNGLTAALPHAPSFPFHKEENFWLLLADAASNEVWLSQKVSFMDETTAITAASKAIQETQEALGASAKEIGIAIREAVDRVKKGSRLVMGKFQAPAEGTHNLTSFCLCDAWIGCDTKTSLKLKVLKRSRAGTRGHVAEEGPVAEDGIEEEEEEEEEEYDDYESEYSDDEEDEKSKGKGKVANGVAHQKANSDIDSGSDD
UniProt Q6Z7B0, residues 26-665: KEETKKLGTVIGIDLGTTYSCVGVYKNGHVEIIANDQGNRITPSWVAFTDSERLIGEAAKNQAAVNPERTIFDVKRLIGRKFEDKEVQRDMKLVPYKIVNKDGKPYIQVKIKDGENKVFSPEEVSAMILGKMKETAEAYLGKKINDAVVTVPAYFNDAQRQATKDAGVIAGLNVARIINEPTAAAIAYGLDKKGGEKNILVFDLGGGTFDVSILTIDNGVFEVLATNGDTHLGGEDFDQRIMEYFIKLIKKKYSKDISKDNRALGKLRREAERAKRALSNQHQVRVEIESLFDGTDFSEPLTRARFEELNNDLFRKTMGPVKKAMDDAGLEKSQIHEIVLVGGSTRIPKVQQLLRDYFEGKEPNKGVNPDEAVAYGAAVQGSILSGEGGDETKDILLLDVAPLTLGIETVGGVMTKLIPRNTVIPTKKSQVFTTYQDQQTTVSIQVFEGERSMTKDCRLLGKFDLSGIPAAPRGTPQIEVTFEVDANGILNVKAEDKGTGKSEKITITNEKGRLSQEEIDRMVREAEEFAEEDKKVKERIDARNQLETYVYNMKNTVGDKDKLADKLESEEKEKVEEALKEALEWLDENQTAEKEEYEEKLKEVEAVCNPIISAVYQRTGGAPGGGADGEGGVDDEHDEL
UniProt Q6L590, residues 33-669: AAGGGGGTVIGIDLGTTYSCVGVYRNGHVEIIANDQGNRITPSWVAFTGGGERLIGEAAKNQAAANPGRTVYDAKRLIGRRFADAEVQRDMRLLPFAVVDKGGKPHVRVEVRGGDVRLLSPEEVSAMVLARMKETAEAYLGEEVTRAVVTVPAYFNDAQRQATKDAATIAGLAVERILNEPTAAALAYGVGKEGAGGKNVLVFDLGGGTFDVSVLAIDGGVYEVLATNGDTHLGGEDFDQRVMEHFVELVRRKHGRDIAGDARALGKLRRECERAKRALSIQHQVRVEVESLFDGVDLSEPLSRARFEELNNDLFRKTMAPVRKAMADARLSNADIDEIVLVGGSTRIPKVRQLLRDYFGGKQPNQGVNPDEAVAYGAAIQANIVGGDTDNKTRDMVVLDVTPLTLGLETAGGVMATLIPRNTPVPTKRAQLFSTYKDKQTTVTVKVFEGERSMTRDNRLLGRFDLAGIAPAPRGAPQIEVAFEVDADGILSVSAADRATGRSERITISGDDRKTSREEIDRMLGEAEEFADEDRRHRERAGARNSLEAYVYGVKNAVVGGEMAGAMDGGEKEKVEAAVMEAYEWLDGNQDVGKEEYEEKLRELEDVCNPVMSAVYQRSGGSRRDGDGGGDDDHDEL
UniProt Q6Z058, residues 28-676: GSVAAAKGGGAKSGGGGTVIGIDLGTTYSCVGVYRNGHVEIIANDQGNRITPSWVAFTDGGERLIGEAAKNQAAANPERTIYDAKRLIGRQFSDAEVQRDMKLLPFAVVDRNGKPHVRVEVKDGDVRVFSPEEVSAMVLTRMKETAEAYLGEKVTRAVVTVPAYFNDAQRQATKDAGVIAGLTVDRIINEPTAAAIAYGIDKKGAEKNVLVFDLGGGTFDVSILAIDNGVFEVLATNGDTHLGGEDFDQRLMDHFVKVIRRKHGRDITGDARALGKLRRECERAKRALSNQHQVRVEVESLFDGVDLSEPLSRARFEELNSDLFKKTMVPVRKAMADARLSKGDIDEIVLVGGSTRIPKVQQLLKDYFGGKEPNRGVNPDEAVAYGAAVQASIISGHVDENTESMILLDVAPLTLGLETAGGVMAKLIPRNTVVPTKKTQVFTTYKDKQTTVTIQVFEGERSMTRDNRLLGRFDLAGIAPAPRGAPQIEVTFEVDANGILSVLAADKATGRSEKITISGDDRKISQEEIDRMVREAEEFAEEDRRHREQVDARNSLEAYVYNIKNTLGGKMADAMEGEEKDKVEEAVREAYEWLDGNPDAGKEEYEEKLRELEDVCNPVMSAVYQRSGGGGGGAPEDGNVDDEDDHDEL

Columns and labels:
Test in all cases: co-IP; J-protein-3xFLAG and OsBiP-2HA-6His co-transfected into rice Oc cell protoplasts, overnight at 28 °C; extract in 50 mM TRIS-HCl pH 7.5, 150 mM NaCl, 0.5% Triton X-100; anti-FLAG M2 magnetic beads 2 h at 4 °C; washed with NET buffer (0.1% NP-40); blots with anti-FLAG-HRP and anti-HA-HRP; recovery of BiP-HA over input, relative to BiP1-HA
[1] = target: T1, OsERdj7-FLAG (rice (Oryza sativa)) (UniProt Q2QUP1)
T1 sequence: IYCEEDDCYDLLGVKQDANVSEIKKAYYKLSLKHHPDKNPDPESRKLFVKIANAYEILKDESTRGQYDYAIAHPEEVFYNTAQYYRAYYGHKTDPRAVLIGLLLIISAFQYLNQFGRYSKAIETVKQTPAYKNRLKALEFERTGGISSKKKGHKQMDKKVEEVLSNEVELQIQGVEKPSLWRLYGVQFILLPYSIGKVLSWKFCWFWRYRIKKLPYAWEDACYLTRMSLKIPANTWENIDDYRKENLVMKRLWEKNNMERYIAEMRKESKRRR

[2] = target: T2, OsP58B-FLAG (rice (Oryza sativa)) (UniProt Q5JNB5)
T2 sequence: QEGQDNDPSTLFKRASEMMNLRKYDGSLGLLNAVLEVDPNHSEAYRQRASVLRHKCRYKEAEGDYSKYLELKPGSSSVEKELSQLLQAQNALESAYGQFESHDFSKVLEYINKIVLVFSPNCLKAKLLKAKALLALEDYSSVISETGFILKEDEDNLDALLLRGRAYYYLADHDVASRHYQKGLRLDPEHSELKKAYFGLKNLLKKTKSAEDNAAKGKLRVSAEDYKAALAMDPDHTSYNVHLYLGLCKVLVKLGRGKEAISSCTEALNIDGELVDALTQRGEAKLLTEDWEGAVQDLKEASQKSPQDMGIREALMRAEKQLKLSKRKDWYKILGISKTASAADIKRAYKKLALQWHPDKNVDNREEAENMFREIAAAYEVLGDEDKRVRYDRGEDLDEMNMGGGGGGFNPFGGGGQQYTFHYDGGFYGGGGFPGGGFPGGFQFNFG

[3] = target: OsERdj3A-FLAG (rice (Oryza sativa)) (UniProt Q10MW6)
[4] = target: OsERdj2-FLAG (rice (Oryza sativa)) (UniProt Q7XVN7)
[5] = target: T3, OsERdj3B-FLAG (rice (Oryza sativa)) (UniProt B9FHF3)
T3 sequence: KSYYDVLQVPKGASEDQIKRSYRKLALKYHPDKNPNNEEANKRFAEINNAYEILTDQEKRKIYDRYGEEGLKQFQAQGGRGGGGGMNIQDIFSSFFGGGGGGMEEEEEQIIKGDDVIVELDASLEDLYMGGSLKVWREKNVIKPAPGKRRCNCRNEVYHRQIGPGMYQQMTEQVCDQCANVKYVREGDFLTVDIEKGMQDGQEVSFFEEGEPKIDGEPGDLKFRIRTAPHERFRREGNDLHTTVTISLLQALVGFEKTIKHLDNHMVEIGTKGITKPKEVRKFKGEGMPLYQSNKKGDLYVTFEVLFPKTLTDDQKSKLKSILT

[6] = target: T4, OsP58A-FLAG (rice (Oryza sativa))
T4 sequence: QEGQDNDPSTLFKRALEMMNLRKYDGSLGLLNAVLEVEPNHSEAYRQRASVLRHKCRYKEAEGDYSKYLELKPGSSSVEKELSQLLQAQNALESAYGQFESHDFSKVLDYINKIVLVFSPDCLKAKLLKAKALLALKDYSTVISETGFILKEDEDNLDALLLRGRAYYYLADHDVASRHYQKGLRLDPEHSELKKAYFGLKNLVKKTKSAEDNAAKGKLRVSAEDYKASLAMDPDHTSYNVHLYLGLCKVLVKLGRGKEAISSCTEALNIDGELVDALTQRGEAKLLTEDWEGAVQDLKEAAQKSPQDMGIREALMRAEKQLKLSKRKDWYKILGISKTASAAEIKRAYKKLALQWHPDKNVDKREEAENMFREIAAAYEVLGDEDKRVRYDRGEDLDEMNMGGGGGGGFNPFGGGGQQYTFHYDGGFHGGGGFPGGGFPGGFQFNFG

Measured: binding

OsBiP1-HA (from UniProt Q6Z7B0 26-665)
binds: [1] | [2] | [3] | [4]

OsBiP3-HA (from UniProt Q6L590 33-669)
binds: all assays above

OsBiP5-HA (from UniProt Q6Z058 28-676)
not listed: [3]
binds: all other assays above
